Experimental findings from paper PMC11036802 are described below.

The labels stand for the following.
B1: SNF2L (PF3D7_1104200) (protein, UniProt Q8IIW0 1-1426)
chain: MFRNVRDYFKSSNDVNEEKKNDVGSVHMDENTENYDKESNGFVHRDFNNGINKEDKDYEELDLKKLNVSSNDITKEGNNMNENMMNRKLNSSVEDGNDNNHDKNVHRNIGNDTHVSYDDKRKSYLDNNEENSEQMNDNMKKRKLNEISYDNNEEDEFRNKKDDSMEMNDKEKGSTNMSTINDNNNNHNDDSNNHNDDSNNHNDDSNNHNDDSNNHNDDNNNHNEDNNNHNDDNNNHNDDNNYNSEEKPNYLQEKLEQLLAQTKRYTEKLAGQRLKMNAQMKSSKKGRCLLTEKEEDFMLLKDANEEDEAIILKQPMNINGTMKPYQLEGLNWLYQLYRFKINGILADEMGLGKTLQTISLLCYLRFNKNIKKKSIIICPRSTLDNWYEEIKKWCTPMKAFKYYGNKDQRKELNRNLLHSDFDVLLTTYEIVIKDKSALYDIDWFFLVIDEAHRIKNEKSVLSSSVRFLRSENRLLITGTPLHNNLKELWSLLNFLMPKIFDNSEEFDNLFNISKISTNDNKQSEIITQLHTILKPFMLRRLKVEVEQSLPPKREIYIFVGMSKLQKKLYSDILSKNIDVLNAMTGSKNQMLNILMQLRKCCNHPYLFDGIEEPPYIEGNHLIETSGKMSLLDKLLPRLKKENSRVLLFSQMTRLLDIIDDYCRWKNYPYLRIDGSTPGDERQVRINQFNEPNSKYFIFLLSTRAGGIGINLTTADIVILFDSDYNPQMDIQAMDRAHRIGQKKRVIVYRFVTQNSVEEKIVERAAKKLKLDSLIIQKGKLNLNSAKENNKQELHDILNFGAPEVYKTQDISSISDEDIDIILADAEKRTIEIEKKLKNLENIFDLTNISLDGGLNMYNDLEKEASEESTDEEDSSGSGEETILEGSGNNDIVEENGVKKKKKKKKNINKIRRTIKKFLKNNKKNMTFLDLGERKSKWKVMNTACGRTNKKKMVLHGWRAEARGGHDFQFFNVEKLDELEKIEDKWNNYMINQEKINVLIEAQNEEKDYEKIVTFNEFLDKHAKNIYQIITLINPSLFDEHKDTKEEELLKMGTHSDVNSNDKDYKRSSFMSTDYNMKTTYLNNINSNNNNNNNNINDNVGTSINTIDDQQYFKKKILSLFESGKKLQMIKFKDRNIKNCYTQVANFIKKNFPEKINNNDTNNNKSTTLKNKKLKKGKQTKNVNVEKDIASVDIEKIKLQKQELMKQGFAKWNKAEFNKLMSGLIIYGTNEVEYIYEKYFSNSKKSMEDIKAYLTVFFRKYDQIKGGVRLFDKIKRSDLQKKIIEEENDMITEFVEKQLSEGVDSIEKLQLPSNLRYDFMEKREVLNITEEVKTENEENVLSNEELAYYDRENKILLWLLYQQGVVQIKNIHILTPYYWPEAYNFFKYATTPFENVEYRCRLIVDAIAELYAKKENVPLNNKDKRRI
B2: PF3D7_1415900, homolog of SWC6 (protein, UniProt Q8ILT7 1-146)
chain: MGRRPLDKNLKKEKNVKVIKKRKRKKGSDSDDDDDDIEIANTNVPINKNVSTKFKQREKVDINLILAQDEEDAFKTKTYCWTKVNAGNTSLVKRKLCTVCGFEGKYKCLKCFEHKPTSFVRYTCSLNCKKIHDESSCCKSKMLGTW
B3: PF3D7_0505600, homolog of SWC5 (protein, UniProt Q8I446 1-333)
chain: MATILTMQFPSSDEEDEDYFVDEENDNDDEDDDDNNNNNNNNEHNNNEHNNDQHNNNVHNNDQHNNNHMKTIRKKRKGRCKDIKNSIKKSIIKEKIEKTYKDINLEYKQLYSHESNIRNGDFLLQFHKKDPQICKKYNSIDKLYNHLNKYCSIEQDNKNIKNNNQQQNDNHVNNDEDHYSQHYITMKEYKKKSRNDQYVNEIHNNHLVKSALDNFYDNNSIHVEKKYMYAGKIFTIKKKIDKTSASYKRYLKTQDKINIGGNFSNIDELIQNIQEQKQINTIDKSSEDWKQYKLINLVDDDKLKKNQHYLENKFFEENVERRVYENKIKKLHK
B4: PfARP6 (protein, UniProt Q8IBQ9 1-1032)
chain: MSAPVNIDIPKLILDNGAGLIKGGILPSYSQIEGSLCEEIEPKFILPNCVGQIRKKNIFHISDSCQSICEYFCHRPHVDGLLLDLELETKIWEKIFSCRNTVGGKINEMGLCVTESYLTPAYIKQGVIELLFEYFNMNQIVIVSSQTMLPFSYIGLNLGQYDILNPPIYRSRSSITKKVDQVIKRRRRSENCDIDMNKLDSSKDNMMENNLVTDSVINIKKLGSMDKTNEENVNSMNSVNNVNNFIDDNSYESKKIRLSQESVDHNKFNENKGDPINIQKDNVFAQDDDKNIEDVEKYENSGHTFEKRRYNKKNTKSDVNIFTNKHIYLKNIECYNKYSHKLYIDDKYQGDNWEDFYFNSFFNLNNYNNNNIYDDDNNNNNYLFEGLKTHAKSYKFNNNNVVRTLYDNNYLGKNFSRQDPNFIIPEKVDLYRNYYGKNFQDIKMFKKNYRNKYINNFYKNIINGNYNLSLRNPCALYIDVGFSHTYVLPYIEYKLIEYAVLRTKISGSILNSYLKSTLSYKHVNLEHNELLVENIKERACYVSLDYLKELEKEKTRLENIKNQRIKDKLDMRAEILMKELEEEEAQGKGERDKEKKKEMDTNMEKKKMKKKKKKKESDLLTNSLVKEDESNSTINDMKVNEKDNSDVTEYKENSSNSYDKKMNNILTKKKNDSCGSSLSVSNKSDDDMYIKKRRTCNVEEGGVDITEDQSYMSDLKSNVSVDKSRKSSRSNINVDKSYTNDEDNKSNYNNNSDDNNNNSDDNNKYSDDNNKYSDDSNEYSDDSNNNNNNNNKYSDDSNKYSDDNNKYNIDKCNGRKNKKLQPHLSYQYKLIDYNNVSKRQINKVFNTLKSNYNNNCIYIDSDYDYKEEFSNFIIDDKDDNMNIKDMSIKVGDSSKGKEDVINLTNERIGIPEILFNPQDINLEHCSIVELVYRCISLLPKHIQKYFVSQIYISGGSTKFRNFKHRLYKELRQVFPSDWDINIYSHKNSLYSNYIGTYVWLSDPSIYNYNVITREQYFNFGKESKVWNRKKDA
B5: PfBDP1 (PF3D7_1033700), homolog of Bdf1 (protein, UniProt Q8IJ72 1-488)
chain: MMLEDFNTLPLIKSIREDSLDDVLKFLENNYKDYEVNENGEAKKTIELVDKQTQATPLFYVTARKSDEESVEISKLIIEKYAICNPISKDLMKQTCLFYAAREGHLNLCNYLIEKGCNPNDQDNFGQTCLFYASREGKTDCVLTLIKKGANPNLLDLNKQTCLFYACRDGRYDTVKCLLENGVNPSIKDAQRRTALTFAKGNGHNNIINLLKNVGTLSRSSIDSNAQLGNITMLRRNSSSYIAASSPNESNLNNLTVQAENVSNVNLKTEDNQLRKKYKLQYKPLSDEDPLLWVDAPLIKIKEFERKFPELALWPRNVSQSNVEVNNANDAFNKQWYLLANQLILSLSKYEGGHIFEKLVDAKKQNCPDYYDVIKNPMSFSCIKTKLKKGQYAYPSEFVKDVQLIFDNCSLYNTSNSVVAITGKNIETYFNNQLIVMGYNNFILKEKKINDMLKLVEEENIKWSKEKEDQIEEIDELENNQEDSSKKD
B6: PfH2B.Z (protein, UniProt Q8IBV7 1-123)
chain: MSGKGPAQKSQAAKKTAGKTLGPRHKRKRRTESFSLYIFKVLKQVHPETGVTKKSMNIMNSFINDIFDRLVTEATRLIRYNKKRTLSSREIQTAVRLLLPGELSKHAVSEGTKAVTKYTTSAA
B7: ATP-dependent protease ClpY (PF3D7_0907400) (protein, UniProt Q8I377 1-922)
chain: MKNLDANKCIKLINGLKQKKNYPYFSLQCLKNISNEKEKIHDKLLTFIPNNSRKIINSGTKSNYDSRFDKLIQNNKNNKNYNNINYKVIDHNKSNEECNVKNNFSINNKNVHISDINVKQKDKGDDLVIHIKYEPDNNKNGKKNEGQQILYNYDEMNYGNEDKTKLYIMNNYDEVGTKCNYKEYVSYNMNPHEYGKREDVNINGNNINNINNINSMNNINNINSINSINNNNINNSYNSYNNCKYINNNNNNDYNNFSRHGEKQKKYTMFLKKDDISKNIDQKEHINNLNSINNLDNMNETCDDTTSCTHSKNTRSDKKTDASISGKDDIVRDSYSSDKKKENMENFAKVKITKENIININEIKEEDVKKVKKVMGHKKETNEYNIKDEKNDNIYDIKVDIKKEEKDNIYDIKVDIKNEELPKSTIASEVPNHNSNVLKNDNIGKKNYFSSGSMKSGNVLKEEIKSDDSKINFQMKNGKSSKKCLYPHEIVEYLNKYIIGQSEAKKVVANALRQRWRRIQVSDDMKKDIIPKNILMIGPTGVGKTEIARRISMFVDAPFIKVEATKFTEVGFHGKDVDQIIKDLVEIAVKRQKTKFEIEIREQAEETVENIILYSLLGNIKEEEKNIWRKYLKDGSLDDKVISIDIPNYINNNIFSNDSVENAVKEALSNHQNIKSVKIIHQNINKQSDKKTMTIREARQKLLQLEIDSSINQDTILKTAINSVEEEGIVFIDEIDKICSKSNSSYNGPDASAEGVQRDLLPLIEGCVINTKYGNINTNYILFIASGAFQRVKPNDMLNELQGRLPVHVTLSSLTIKDFIDILTKTHNNLLQQNIALLKTEGIDLKFTDDAIETIANAAHDMNFYVENIGVRRLHTIIEKIMEDINYDVYNYVNQSIVIDKDKVNKSLEGFIKQYDLKKYII

No constants are given. Whether binding was seen depends on the method and setting. In cells and extracts the contact can be indirect. A yes stands for co-enrichment or nearness to the bait. Other partners may have been found. Where a sequence is shown, tags or fusion partners need not be part of it.

The target in the first experiment is T1, PfEAF2::GFP (endogenous PfEAF2 tagged with GFP) (P. falciparum (endogenous in 3D7 parasites)) (UniProt C6KTC1).
T1 sequence: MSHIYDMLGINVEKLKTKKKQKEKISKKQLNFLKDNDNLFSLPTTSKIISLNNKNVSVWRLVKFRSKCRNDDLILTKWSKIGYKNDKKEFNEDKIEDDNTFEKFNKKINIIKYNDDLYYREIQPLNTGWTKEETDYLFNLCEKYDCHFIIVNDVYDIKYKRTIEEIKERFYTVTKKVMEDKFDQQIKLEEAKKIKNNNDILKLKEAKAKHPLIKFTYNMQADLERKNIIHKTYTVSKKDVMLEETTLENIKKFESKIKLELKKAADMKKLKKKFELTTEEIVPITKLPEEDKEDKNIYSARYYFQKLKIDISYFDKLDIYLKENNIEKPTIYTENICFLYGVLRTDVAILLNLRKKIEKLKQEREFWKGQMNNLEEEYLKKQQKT
Put plainly: affinity purification with mass spectrometry; single-step pulldown of PfEAF2::GFP with GFP-trap beads from lysates of 10^9 parasites; LC-MS/MS, same SAINT thresholds; three replicates.
B1: the binding result is recorded as “binds”. Consider B2, for which the binding entry is “binds”.

Consider B3, for which the binding result is “binds”. The same measure, in the same setting: next, B4: “binds”; B5: “binds”. Same read-out and setting: next, B6: “binds”.

Another experiment deals with T2, PfMYST::PTP (endogenous PfMYST with a C-terminal PTP tag) (P. falciparum (endogenous in 3D7 parasites)) (UniProt Q8III2).
T2 sequence: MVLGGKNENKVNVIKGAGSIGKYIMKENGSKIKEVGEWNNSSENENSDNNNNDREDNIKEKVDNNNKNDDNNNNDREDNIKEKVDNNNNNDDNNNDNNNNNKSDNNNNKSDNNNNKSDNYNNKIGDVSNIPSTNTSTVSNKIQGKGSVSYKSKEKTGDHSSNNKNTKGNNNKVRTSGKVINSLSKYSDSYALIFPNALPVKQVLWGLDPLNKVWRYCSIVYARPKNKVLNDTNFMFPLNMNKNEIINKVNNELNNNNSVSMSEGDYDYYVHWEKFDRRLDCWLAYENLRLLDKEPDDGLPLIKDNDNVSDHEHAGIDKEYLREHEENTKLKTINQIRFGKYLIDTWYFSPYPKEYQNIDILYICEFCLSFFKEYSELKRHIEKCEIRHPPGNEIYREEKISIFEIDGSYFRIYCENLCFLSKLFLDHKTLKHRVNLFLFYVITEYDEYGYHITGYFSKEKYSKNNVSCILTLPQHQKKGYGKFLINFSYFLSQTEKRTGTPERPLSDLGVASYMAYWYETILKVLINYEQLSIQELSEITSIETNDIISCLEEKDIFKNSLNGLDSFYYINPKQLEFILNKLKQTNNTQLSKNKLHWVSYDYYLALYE
Description: affinity purification with mass spectrometry; tandem affinity purification (IgG agarose beads, TEV protease, anti-protein C beads) of PfMYST::PTP from nuclear extracts of 10^9 asexual blood-stage parasites in PA150 buffer (150 mM KCl, 20 mM Tris-HCl pH 7.7, 3 mM MgCl2, 0.5 mM DTT, 0.1% Tween 20), 4°C; WT 3D7 as control; LC-MS/MS, SAINT probability above 95%, FDR below 1%; three replicates.
Turning to B7, the binding entry was “binds”.
